PubChem BioAssay AID1159584 | Peter MacCallum Cancer Centre – 2016

- Purpose: 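Genes that CDH1-null MCF10A cells selectively depend on to survive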 (primary screen)
- System: human MCF10A breast epithelial cells, parental and CDH1-null
- Knock-down reagent: siRNA against human genes
- Measured: 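ATP luminescence (CellTiter-Glo) viability per line relative to mean mock wells over all plates, and the ratio of CDH1-null to parental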
- Direction: CDH1-null / parental viability ratio: higher = CDH1-null cells survive relatively better than parental; CDH1-null viability vs mock: higher = more viable CDH1-null cells; parental viability vs mock: higher = more viable parental cells
The whole screen tested about 18,000 reagents; below is a random part of them. Not given: the amount of reagent, the time to read-out.

gene knocked down,CDH1-null / parental viability ratio,CDH1-null viability vs mock (fraction of mock),parental viability vs mock (fraction of mock)
ELOVL4,0.67,0.47,0.7
CYTH1,0.76,0.32,0.42
PEAR1,1.05,0.8,0.76
SLITRK2,1.17,0.96,0.82
KMT2A,0.95,0.89,0.94
ITPRIPL1,0.94,0.34,0.36
FCHSD1,1.23,0.76,0.62
EPPIN,1.13,0.95,0.84
GLOD4,1.08,0.97,0.9
NBPF3,0.89,0.89,1
PEX13,0.92,0.72,0.78
CSNK1G1,0.97,0.77,0.79
HHAT,0.72,0.61,0.85
HBS1L,0.98,0.92,0.94
CCNYL1,0.87,1,1.15
AP4S1,1.13,0.78,0.69
NBPF8,1.09,0.98,0.9
PCDHA6,1.13,1.04,0.92
KPTN,1.1,0.97,0.88
PLEKHO2,0.93,0.69,0.74
GAD1,1.1,0.8,0.73
MUL1,0.87,0.92,1.06
BMF,0.97,0.62,0.64
CHIT1,1,0.52,0.52
NDUFA8,1.34,0.99,0.74
UCHL3,1.12,0.94,0.84
PGP,1.83,1.28,0.7
REG1B,0.85,0.64,0.75
PLEKHN1,1.4,0.84,0.6
FSTL4,1.41,0.9,0.64
KLHL6,1.03,0.8,0.78
SLC16A3,0.62,0.4,0.64
ATRN,1.09,0.83,0.76
CAPN13,1.07,0.92,0.86
P2RY8,0.77,0.83,1.08
TJP1,1.06,1.06,1
PHETA2,1.29,0.8,0.62
CDX4,1.13,1.07,0.95
PREB,1.04,0.94,0.9
KRT82,1.04,0.73,0.7
FAM218A,1.26,0.93,0.74
PIK3CB,0.9,0.74,0.82
TBC1D22B,1.02,0.94,0.92
GRAP,1.13,0.79,0.7
OLFM4,1.02,0.95,0.93
OR7G1,1.08,1.04,0.96
TTF2,1.05,0.92,0.88
MAPK8IP1,0.94,0.66,0.7
CRB1,0.88,1.12,1.27
LARS1,1,0.77,0.77
MKRN3,1.03,0.97,0.94
PTPRM,1.32,0.87,0.66
TLR4,0.8,0.6,0.75
NEU3,0.78,0.6,0.77
OR9Q1,0.96,0.8,0.83
TUBAL3,0.9,0.78,0.87
LGR4,0.91,0.78,0.86
TCAP,0.58,0.38,0.65
CEP72,1.35,0.42,0.31
GDPD1,1.08,1.25,1.16
TMSB15A,0.81,0.84,1.04
VSTM2L,1.19,0.5,0.42
CHST6,1.07,1.16,1.08
FOXI2,0.79,0.68,0.86
ZDHHC16,1.05,0.46,0.44
ZBTB26,0.91,0.62,0.68
SLC44A3,0.97,1.02,1.05
LRIF1,0.77,0.77,1
ITIH6,1.11,1.02,0.92
DRAXIN,0.91,0.75,0.82
UNC5B,1.01,1.04,1.03
MINDY3,1.13,0.81,0.72
HLA-C,0.96,0.94,0.98
CASQ2,1.02,0.54,0.53
TM9SF4,1.11,0.52,0.47
ELMO1,1.4,0.77,0.55
APBA3,1.06,0.54,0.51
FBF1,1.24,0.77,0.62
SEC13,1.05,0.4,0.38
PAGE2,1.07,0.92,0.86
ATF7,0.97,0.64,0.66
CNKSR2,0.89,0.84,0.94
COPS8,0.84,0.72,0.86
SLC12A8,0.97,0.96,0.99
METTL1,0.92,0.77,0.84
AMDHD2,1.01,0.73,0.72
METTL16,0.97,0.96,0.99

An excerpt from above, showing only “CDH1-null / parental viability ratio”:
UNC5B = 1.01
MINDY3 = 1.13
HLA-C = 0.96
CASQ2 = 1.02
TM9SF4 = 1.11
ELMO1 = 1.4
APBA3 = 1.06
FBF1 = 1.24
SEC13 = 1.05
PAGE2 = 1.07
ATF7 = 0.97
